Patent US10227357B2, “Compounds and methods for kinase modulation, and indications therefor” (Plexxikon Inc., priority 2012, dated 2019)
Some results were stated once for a whole list of compounds, not compound by compound.

By UniProt entry, the sequences of proteins in these tests, tags left out.
UniProt P10721, whole entry D816V: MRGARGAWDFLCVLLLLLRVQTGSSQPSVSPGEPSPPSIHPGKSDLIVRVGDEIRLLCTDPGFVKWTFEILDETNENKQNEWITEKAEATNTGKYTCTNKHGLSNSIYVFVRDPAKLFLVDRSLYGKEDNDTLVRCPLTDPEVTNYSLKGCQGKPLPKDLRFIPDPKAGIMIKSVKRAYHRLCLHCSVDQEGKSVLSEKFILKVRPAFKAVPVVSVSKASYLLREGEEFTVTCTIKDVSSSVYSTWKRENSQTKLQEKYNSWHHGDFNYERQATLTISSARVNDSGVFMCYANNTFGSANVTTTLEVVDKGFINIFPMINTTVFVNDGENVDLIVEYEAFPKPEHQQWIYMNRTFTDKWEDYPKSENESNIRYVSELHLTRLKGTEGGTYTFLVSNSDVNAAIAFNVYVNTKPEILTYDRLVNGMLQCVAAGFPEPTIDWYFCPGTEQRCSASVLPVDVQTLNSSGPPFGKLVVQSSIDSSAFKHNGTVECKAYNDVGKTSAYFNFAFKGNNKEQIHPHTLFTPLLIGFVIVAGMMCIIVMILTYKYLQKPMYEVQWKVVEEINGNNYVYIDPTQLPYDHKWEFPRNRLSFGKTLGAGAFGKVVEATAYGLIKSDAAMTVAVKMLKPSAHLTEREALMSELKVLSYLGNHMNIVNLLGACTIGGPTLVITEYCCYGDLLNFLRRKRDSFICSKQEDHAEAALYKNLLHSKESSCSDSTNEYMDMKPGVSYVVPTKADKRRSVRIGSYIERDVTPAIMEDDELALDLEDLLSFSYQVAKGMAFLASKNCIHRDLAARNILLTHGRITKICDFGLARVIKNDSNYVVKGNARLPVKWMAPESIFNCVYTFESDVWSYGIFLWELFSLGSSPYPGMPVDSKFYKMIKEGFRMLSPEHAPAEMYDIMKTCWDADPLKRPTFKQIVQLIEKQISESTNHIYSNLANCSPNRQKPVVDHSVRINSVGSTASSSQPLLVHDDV

molecular target: BaF3-FL KIT D816V cells (Homo sapiens, UniProt P10721, D816V, cells depend on it, form not given); test: Cell-based assay of c-Kit mutant kinase activity, BaF3-FL KIT D816V cell proliferation (ATPlite); details: in at least one of the c-kit cell assays described in Example 28 (BaF3-FL KIT D816V or BaF3-FL KIT V560G/D816V); read-out: IC50 (the source's name)

Structure (SMILES)	GI50
CCCCS(=O)(=O)Nc1ccc(-c2ncnc3[nH]c(-c4ccc(F)cc4)cc23)cc1 [P-0419, N-[4-[6-(4-fluorophenyl)-7H-pyrrolo[2,3-d]pyrimidin-4-yl]phenyl]butane-1-sulfonamide]	< 10 µM
O=S(=O)(Nc1ccc(-c2ncnc3[nH]c(-c4ccc(F)cc4)cc23)cc1)C1CC1 [P-0420, N-[4-[6-(4-fluorophenyl)-7H-pyrrolo[2,3-d]pyrimidin-4-yl]phenyl]cyclopropanesulfonamide]	< 10 µM
CCCCNS(=O)(=O)c1ccc(-c2ncnc3[nH]c(-c4ccc(F)cc4)cc23)cc1 [P-0421, N-butyl-4-[6-(4-fluorophenyl)-7H-pyrrolo[2,3-d]pyrimidin-4-yl]benzenesulfonamide]	< 10 µM
CCNS(=O)(=O)c1ccc(-c2ncnc3[nH]c(-c4ccc(F)cc4)cc23)cc1 [P-0422, N-ethyl-4-[6-(4-fluorophenyl)-7H-pyrrolo[2,3-d]pyrimidin-4-yl]benzenesulfonamide]	< 10 µM
COc1ccc(CNS(=O)(=O)c2ccc(-c3ncnc4[nH]c(-c5ccc(F)cc5)cc34)cc2)cc1 [P-0423, 4-[6-(4-fluorophenyl)-7H-pyrrolo[2,3-d]pyrimidin-4-yl]-N-[(4-methoxyphenyl)methyl]benzenesulfonamide]	< 10 µM
O=S(=O)(NC1CC1)c1ccc(-c2ncnc3[nH]c(-c4ccc(F)cc4)cc23)cc1 [P-0424, N-cyclopropyl-4-[6-(4-fluorophenyl)-7H-pyrrolo[2,3-d]pyrimidin-4-yl]benzenesulfonamide]	< 10 µM
COc1cc(NS(=O)(=O)c2ccc(-c3ncnc4[nH]c(-c5ccc(F)cc5)cc34)cc2)ccc1F [P-0425, N-(4-fluoro-3-methoxy-phenyl)-4-[6-(4-fluorophenyl)-7H-pyrrolo[2,3-d]pyrimidin-4-yl]benzenesulfonamide]	< 10 µM
NS(=O)(=O)c1cccc(-c2ncnc3[nH]c(-c4ccc(F)cc4)cc23)c1 [P-0427, 3-[6-(4-fluorophenyl)-7H-pyrrolo[2,3-d]pyrimidin-4-yl]benzenesulfonamide]	< 10 µM
O=S(=O)(Nc1ccc(F)cc1)c1ccc(-c2ncnc3[nH]c(-c4ccc(F)cc4)cc23)cc1 [P-0428, N-(4-fluorophenyl)-4-[6-(4-fluorophenyl)-7H-pyrrolo[2,3-d]pyrimidin-4-yl]benzenesulfonamide]	< 10 µM
O=S(=O)(NC1CC1)c1cccc(-c2ncnc3[nH]c(-c4ccc(F)cc4)cc23)c1 [P-0429, N-cyclopropyl-3-[6-(4-fluorophenyl)-7H-pyrrolo[2,3-d]pyrimidin-4-yl]benzenesulfonamide]	< 10 µM
CNS(=O)(=O)c1ccc(-c2ncnc3[nH]c(-c4ccc(F)cc4)cc23)cc1 [P-0430, 4-[6-(4-fluorophenyl)-7H-pyrrolo[2,3-d]pyrimidin-4-yl]-N-methyl-benzenesulfonamide]	< 10 µM
CCS(=O)(=O)Nc1ccc(-c2ncnc3[nH]c(-c4ccc(F)cc4)cc23)cc1 [P-0431, N-[4-[6-(4-fluorophenyl)-7H-pyrrolo[2,3-d]pyrimidin-4-yl]phenyl]ethanesulfonamide]	< 10 µM
CS(=O)(=O)Nc1ccc(-c2ncnc3[nH]c(-c4ccc(F)cc4)cc23)cc1 [P-0432, N-[4-[6-(4-fluorophenyl)-7H-pyrrolo[2,3-d]pyrimidin-4-yl]phenyl]methanesulfonamide]	< 10 µM
Cc1ccc(S(=O)(=O)Nc2ccc(-c3ncnc4[nH]c(-c5ccc(F)cc5)cc34)cc2)cc1 [P-0433, N-[4-[6-(4-fluorophenyl)-7H-pyrrolo[2,3-d]pyrimidin-4-yl]phenyl]-4-methyl-benzenesulfonamide]	< 10 µM
CCCS(=O)(=O)Nc1cccc(-c2ncnc3[nH]c(-c4ccc(F)cc4)cc23)c1 [P-0434, N-[3-[6-(4-fluorophenyl)-7H-pyrrolo[2,3-d]pyrimidin-4-yl]phenyl]propane-1-sulfonamide]	< 10 µM
Cc1ccc(S(=O)(=O)Nc2cccc(-c3ncnc4[nH]c(-c5ccc(F)cc5)cc34)c2)cc1 [P-0435, N-[3-[6-(4-fluorophenyl)-7H-pyrrolo[2,3-d]pyrimidin-4-yl]phenyl]-4-methyl-benzenesulfonamide]	< 10 µM
O=S(=O)(Nc1ccc(OC(F)(F)F)cc1)c1ccc(-c2ncnc3[nH]c(-c4ccc(F)cc4)cc23)cc1 [P-0436, 4-[6-(4-fluorophenyl)-7H-pyrrolo[2,3-d]pyrimidin-4-yl]-N-[4-(trifluoromethoxy)phenyl]benzenesulfonamide]	< 10 µM
O=S(=O)(NCc1ccccc1)c1ccc(-c2ncnc3[nH]c(-c4ccc(F)cc4)cc23)cc1 [P-0437, N-benzyl-4-[6-(4-fluorophenyl)-7H-pyrrolo[2,3-d]pyrimidin-4-yl]benzenesulfonamide]	< 10 µM
Cc1n[nH]c2ncnc(-c3ccc(NS(=O)(=O)c4ccc(C(F)(F)F)cc4)cc3)c12 [P-0438, N-[4-(3-methyl-1H-pyrazolo[3,4-d]pyrimidin-4-yl)phenyl]-4-(trifluoromethyl)benzenesulfonamide]	< 10 µM

Structure (SMILES)	GI50
Cc1n[nH]c2ncnc(-c3ccc(NS(=O)(=O)c4ccc(F)cc4)cc3)c12 [P-0439, 4-fluoro-N-[4-(3-methyl-1H-pyrazolo[3,4-d]pyrimidin-4-yl)phenyl]benzenesulfonamide]	< 10 µM
Cc1n[nH]c2ncnc(-c3ccc(NS(=O)(=O)c4cccc(F)c4)cc3)c12 [P-0440, 3-fluoro-N-[4-(3-methyl-1H-pyrazolo[3,4-d]pyrimidin-4-yl)phenyl]benzenesulfonamide]	< 10 µM
Cc1n[nH]c2ncnc(-c3ccc(NS(=O)(=O)c4ccc(C(F)(F)F)nc4)cc3)c12 [P-0441, N-[4-(3-methyl-1H-pyrazolo[3,4-d]pyrimidin-4-yl)phenyl]-6-(trifluoromethyl)pyridine-3-sulfonamide]	< 10 µM
CCc1ccc(S(=O)(=O)Nc2ccc(-c3ncnc4[nH]nc(C)c34)cc2)cc1 [P-0442, 4-ethyl-N-[4-(3-methyl-1H-pyrazolo[3,4-d]pyrimidin-4-yl)phenyl]benzenesulfonamide]	< 10 µM
Cc1n[nH]c2ncnc(-c3ccc(NS(=O)(=O)c4cccc(Cl)c4)cc3)c12 [P-0443, 3-chloro-N-[4-(3-methyl-1H-pyrazolo[3,4-d]pyrimidin-4-yl)phenyl]benzenesulfonamide]	< 10 µM
COc1ccc(S(=O)(=O)Nc2ccc(-c3ncnc4[nH]nc(C)c34)cc2)cc1 [P-0444, 4-methoxy-N-[4-(3-methyl-1H-pyrazolo[3,4-d]pyrimidin-4-yl)phenyl]benzenesulfonamide]	< 10 µM
Cc1ccc(S(=O)(=O)Nc2ccc(-c3ncnc4[nH]ncc34)cc2)cc1 [P-0446, 4-methyl-N-[4-(1H-pyrazolo[3,4-d]pyrimidin-4-yl)phenyl]benzenesulfonamide]	< 10 µM
Cc1ccc(S(=O)(=O)Nc2ccc(-c3ncnc4[nH]nc(C)c34)cc2)cc1 [P-0447, 4-methyl-N-[4-(3-methyl-1H-pyrazolo[3,4-d]pyrimidin-4-yl)phenyl]benzenesulfonamide]	< 10 µM
Cc1ccc(S(=O)(=O)Nc2ccc(-c3ncnc4[nH]cc(C)c34)cc2)cc1 [P-0448, 4-methyl-N-[4-(5-methyl-7H-pyrrolo[2,3-d]pyrimidin-4-yl)phenyl]benzenesulfonamide]	< 10 µM
Cc1ccc(S(=O)(=O)Nc2ccc(-c3ncnc4[nH]c(C)c(C)c34)cc2)cc1 [P-0449, N-[4-(5,6-dimethyl-7H-pyrrolo[2,3-d]pyrimidin-4-yl)phenyl]-4-methyl-benzenesulfonamide]	< 10 µM
Cc1ccc(S(=O)(=O)Nc2ccc(-c3ncnc4[nH]c(C)nc34)cc2)cc1 [P-0450, 4-methyl-N-[4-(8-methyl-9H-purin-6-yl)phenyl]benzenesulfonamide]	< 10 µM
Cc1ccc(S(=O)(=O)NC2CCN(c3ncnc4[nH]c(-c5cnn(C)c5)cc34)CC2)cc1 [P-0451, 4-methyl-N-[1-[6-(1-methylpyrazol-4-yl)-7H-pyrrolo[2,3-d]pyrimidin-4-yl]-4-piperidyl]benzenesulfonamide]	< 10 µM
Cn1cc(-c2cc3c(N4CCC(NS(=O)(=O)c5ccc6c(c5)CCC6)CC4)ncnc3[nH]2)cn1 [P-0452, N-[1-[6-(1-methylpyrazol-4-yl)-7H-pyrrolo[2,3-d]pyrimidin-4-yl]-4-piperidyl]indane-5-sulfonamide]	< 10 µM
Cc1csc(S(=O)(=O)NC2CCN(c3ncnc4[nH]c(-c5cnn(C)c5)cc34)CC2)c1 [P-0453, 4-methyl-N-[1-[6-(1-methylpyrazol-4-yl)-7H-pyrrolo[2,3-d]pyrimidin-4-yl]-4-piperidyl]thiophene-2-sulfonamide]	< 10 µM
Cc1ccc(S(=O)(=O)NC2CCN(c3ncnc4[nH]c(-c5cnn(C)c5)cc34)CC2)s1 [P-0454, 5-methyl-N-[1-[6-(1-methylpyrazol-4-yl)-7H-pyrrolo[2,3-d]pyrimidin-4-yl]-4-piperidyl]thiophene-2-sulfonamide]	< 10 µM
Cc1ccc2sc(S(=O)(=O)NC3CCN(c4ncnc5[nH]c(-c6cnn(C)c6)cc45)CC3)cc2c1 [P-0455, 5-methyl-N-[1-[6-(1-methylpyrazol-4-yl)-7H-pyrrolo[2,3-d]pyrimidin-4-yl]-4-piperidyl]benzothiophene-2-sulfonamide]	< 10 µM
Cn1cc(-c2cc3c(N4CCC(NS(=O)(=O)c5ccc6c(c5)OCO6)CC4)ncnc3[nH]2)cn1 [P-0456, N-[1-[6-(1-methylpyrazol-4-yl)-7H-pyrrolo[2,3-d]pyrimidin-4-yl]-4-piperidyl]-1,3-benzodioxole-5-sulfonamide]	< 10 µM
Cn1cc(-c2cc3c(N4CCC(NS(=O)(=O)c5ccc6c(c5)CCO6)CC4)ncnc3[nH]2)cn1 [P-0457, N-[1-[6-(1-methylpyrazol-4-yl)-7H-pyrrolo[2,3-d]pyrimidin-4-yl]-4-piperidyl]-2,3-dihydrobenzofuran-5-sulfonamide]	< 10 µM
Cn1cc(-c2cc3c(N4CCC(NS(=O)(=O)c5ccc(Cl)s5)CC4)ncnc3[nH]2)cn1 [P-0458, 5-chloro-N-[1-[6-(1-methylpyrazol-4-yl)-7H-pyrrolo[2,3-d]pyrimidin-4-yl]-4-piperidyl]thiophene-2-sulfonamide]	< 10 µM
